In paper PMC5290277, “Specialized interfaces of Smc5/6 control hinge stability and DNA association”:

Key:
[1] = tested on: Smc5 hinge (extended-hinge) + Smc6 hinge (extended-hinge); test: fluorescence polarization; conditions: 20 mM HEPES.NaOH pH 7.5, 100 mM NaCl, 1 mM EDTA, 0.5 mM TCEP, room temperature 10 min, 100 nM DNA (FP, EMSA), pull-down same buffer, protein incubation 4 C 30 min, recombinant protein, only the site is given
[2] = tested on: Smc5 hinge (extended-hinge) + Smc6 hinge (extended-hinge); test: EMSA; conditions: aggregated species in well above 1.8 uM protein; 20 mM HEPES.NaOH pH 7.5, 100 mM NaCl, 1 mM EDTA, 0.5 mM TCEP, room temperature 10 min, 100 nM DNA (FP, EMSA); pull-down same buffer, protein incubation 4 C 30 min; recombinant protein; label: 3' fluorescein; single-stranded DNA; only the site is given
[3] = tested on: Smc5 hinge (extended-hinge) + Smc6 hinge (extended-hinge); test: pull-down; conditions: 20 mM HEPES.NaOH pH 7.5, 100 mM NaCl, 1 mM EDTA, 0.5 mM TCEP, room temperature 10 min, 100 nM DNA (FP, EMSA); pull-down same buffer, protein incubation 4 C 30 min; recombinant protein; label: 5' biotin; single-stranded DNA
[4] = tested on: Smc5 hinge R609E/R615E + Smc6 hinge (extended-hinge); test: fluorescence polarization; conditions: significantly disrupted, Kd not determined; 20 mM HEPES.NaOH pH 7.5, 100 mM NaCl, 1 mM EDTA, 0.5 mM TCEP, room temperature 10 min, 100 nM DNA (FP, EMSA); pull-down same buffer, protein incubation 4 C 30 min; recombinant protein; label: 5' fluorescein; single-stranded DNA
[5] = tested on: Smc5 hinge Y612A + Smc6 hinge (extended-hinge); test: switchSENSE; conditions: reduced maximum signal, monophasic dissociation; 5' HS-(CH2)6 thiol linker; 20 mM HEPES.NaOH pH 7.5, 100 mM NaCl, 1 mM EDTA, 0.5 mM TCEP, room temperature 10 min, 100 nM DNA (FP, EMSA); pull-down same buffer, protein incubation 4 C 30 min; recombinant protein; label: 3' Cy3; single-stranded DNA
[6] = tested on: Smc5 hinge (extended-hinge) + Smc6 hinge F528A; test: switchSENSE; conditions: reduced maximum signal, monophasic, associates at lower protein concentration than WT; 5' HS-(CH2)6 thiol linker; 20 mM HEPES.NaOH pH 7.5, 100 mM NaCl, 1 mM EDTA, 0.5 mM TCEP, room temperature 10 min, 100 nM DNA (FP, EMSA); pull-down same buffer, protein incubation 4 C 30 min; recombinant protein; label: 3' Cy3; single-stranded DNA
[7] = tested on: Smc5 hinge R609E/R615E + Smc6 hinge (extended-hinge); test: switchSENSE; conditions: significantly disrupted; 5' HS-(CH2)6 thiol linker; 20 mM HEPES.NaOH pH 7.5, 100 mM NaCl, 1 mM EDTA, 0.5 mM TCEP, room temperature 10 min, 100 nM DNA (FP, EMSA); pull-down same buffer, protein incubation 4 C 30 min; recombinant protein; label: 3' Cy3; single-stranded DNA
[8] = tested on: Smc5 hinge (extended-hinge) + Smc6 hinge R706C; test: switchSENSE; conditions: reduced maximum signal; 5' HS-(CH2)6 thiol linker; 20 mM HEPES.NaOH pH 7.5, 100 mM NaCl, 1 mM EDTA, 0.5 mM TCEP, room temperature 10 min, 100 nM DNA (FP, EMSA); pull-down same buffer, protein incubation 4 C 30 min; recombinant protein; label: 3' Cy3; single-stranded DNA

Sequence “TTAGTTGTTCGTAGTGCTCGTCTGGCTCTGGATTACCCGC [oligonucleotide A (called 45 nt ssDNA)]” has a Kd ([1]; label: 3' fluorescein, single-stranded DNA) of 2 µM and a Kd [2] of 1.2 µM.
“GCTCGTCTGGCTCTGGATTACCCGC [25mer (biotin)]”: binds [3].
“TTAGTTGTTCGTAGTGCTCGTCTGGCTCTGGATTACCCGC (double strand) [annealed A+B (called 45 bp dsDNA)]”: binds more weakly ([1]; only ~45% bound at 20 uM protein, label: 3' fluorescein on A).
GCTCGTCTGGCTCTG [15mer]: binds more weakly [4].
“GTGTGAACCCTCCAACAAAGGTAGCATTTGCCAGCTCTCGTGATGCAG [switchSENSE 48mer]”: binds more weakly [5]; binds more weakly [6]; binds more weakly [7]. “GTGTGAACCCTCCAACAAAGGTAGCATTTGCCAGCTCTCGTGATGCAG [switchSENSE 48mer]”: binds more weakly [8].
“GCGGGTAATCCAGAGCCAGACGAGCACTACGAACG [35mer (biotin)]”: binds [3].
“GCGGGTAATCCAGAGCCAGACGAGCACTACGAACAACTAA [40mer (biotin)]”: binds [3].
CTCGTCTGGCTCTGGATTAC [20mer (biotin)]: binds [3].
“GTAGTGCTCGTCTGGCTCTGGATTACCCGC [30mer (biotin)]”: binds [3].

For some of these results: The comparison behind a weaker result is the experiment's own reference, which may not be listed here. For some of these results: For at least one entry, the source does not settle the construct or the ends of the probe. For some of these results: At least one verdict rests on a figure or table, not on a statement of the authors.
